# Source: PubChem BioAssay AID540276 (National Center for Advancing Translational Sciences (NCATS), 2011)
# In all, about 300,000 compounds went through this assay and about 5,400 (1.8%) were called active. Inconclusive results, whose numbers are uncertain, are shown with a selection of clear calls. The call rests on the fitted dose curve; tested in HEK293 cells. A potency beside an inconclusive call is a rough fit, not a confirmed value.
# Assay: qHTS for inhibitors of binding or entry into cells for Marburg Virus
# Details: Marburg virus pseudotyped entry inhibition, cell reporter; activity change, negative = inhibition: at 37.8 µM (top of the series) unless noted
# On the % scale 0 is the no-effect control and ±100 the full control effect; potency means the concentration at half of the fitted maximal effect.
SMILES,Potency,"activity change, negative = inhibition"
Cc1ccccc1OCC(O)CN1CCN(CCN2C(=O)c3cccc4cccc(c34)C2=O)CC1 (configuration not stated),"inconclusive: 18.4 µM [inhibitor, single point]",–
Cc1ccc(C(=O)N/C(=C\c2ccco2)C(=O)NCCN2CCOCC2)cc1C,inactive,–
O=C(/C=C/c1cccs1)NC(=S)NNC(=O)c1ccccc1O,"inconclusive: 3.55 µM [inhibitor, full curve, poor fit]",–
CC(C)(C)SCCNC(=O)COc1ccccc1,inactive,–
O=C(COc1ccc(Cl)cc1)N(Cc1ccccc1)c1nc(-c2ccccc2)cs1,"inconclusive: 29.1 µM [inhibitor, single point]",–
COc1cc(C(=O)OCC(=O)Nc2ccc(F)cc2F)cc(OC)c1OC,"inconclusive: 18.3 µM [inhibitor, single point]",–
Cc1cc(Oc2ccc(Cl)cc2)nc(-c2ccccn2)n1,"inconclusive: 15.8 µM [inhibitor, single point]",–
CC(CNC(=O)COc1ccccc1)OC(=O)Nc1cccc(Cl)c1 (configuration not stated),"inconclusive: 0.562 µM [activator, partial curve, poor fit]",–
CCOc1ccc(-c2csc3nc[nH]c(=O)c23)cc1,inactive,–
CC1CCC/C(=N/Nc2nc3ccccc3s2)C1 (configuration not stated),inactive,–
COC(=O)c1cc(-c2ccc(OC)cc2)n[nH]1,"inconclusive: 3.16 µM [activator, partial curve, poor fit]",–
Cc1ccc(C(=O)Nc2cccc3[nH]c(C(F)(F)F)nc23)cc1,"inconclusive: 7.08 µM [inhibitor, partial curve, poor fit]",–
COc1ccc(S(=O)(=O)Nc2cc3c4c(oc3c3ccccc23)CCCC4=O)cc1,"inconclusive: 12.6 µM [inhibitor, partial curve, poor fit]",–
COc1cccc(Cn2c(=O)oc3ccccc32)c1,"inconclusive: 0.631 µM [activator, full curve, poor fit]",–
CC(C)(O)C#Cc1ccc(CN2CCN(Cc3ccccc3)C(CCO)C2)cc1 (configuration not stated),"inconclusive: 7.08 µM [inhibitor, full curve, poor fit]",–
Cc1cc(O)c(C(C)C)cc1NC(=O)Nc1cccc2ccccc12,"inconclusive: 14.1 µM [inhibitor, partial curve, poor fit]",–
COc1cc(/C=C2/C(=N)N3C(SC)=NSC3=NC2=O)ccc1OC(=O)c1ccco1,"inconclusive: 5.62 µM [activator, single point]",–
O=C(COc1ccc2ccc(=O)oc2c1)Nc1c(Cl)cccc1C(F)(F)F,inactive,–
CCN1CCN(c2oc(COc3ccc(-c4ccccc4)cc3)nc2C#N)CC1,inactive,–
CCC(c1nnnn1Cc1ccco1)N(CCN1CCOCC1)Cc1cc2cc(C)ccc2[nH]c1=O (configuration not stated),inactive,–
CCCCNCc1cc(Cl)c(OCCC)c(OCC)c1,"inconclusive: 29.1 µM [inhibitor, single point]",–
COc1ccc(/C=C/C(=O)c2ccc[nH]2)cc1OC,"inconclusive: 18.3 µM [inhibitor, single point]",–
COc1ccc(-n2nc(C(=O)Nc3ccc(C(C)=O)cc3)nc2-c2ccccc2)cc1,"inconclusive: 3.55 µM [inhibitor, full curve, poor fit]",–

SMILES,Potency,"activity change, negative = inhibition"
COc1cccc(NC(=O)N2CCN(C(=O)C(Cc3ccc(OC)c(OC)c3)NC(C)=O)CC2)c1 (configuration not stated),inactive,–
CCOC(=O)c1c(NC(=S)Nc2ccc(OC)cc2)sc2c1CCCCC2,"inconclusive: 10 µM [activator, partial curve, poor fit]",–
OCC1OC2C(NC(=S)N2c2ccccc2)C(O)C1O (configuration not stated),inactive,–
Cc1ccc(CC(=O)N/N=C/c2ccc3c(c2)OCO3)cc1,–,inconclusive: 36.9% [activator] [at 46.1 µM]
Cc1ccccc1NC(=O)Nc1cc(-c2ccccc2)nn1C,–,inconclusive: 14% [activator]
CO[C@H]1C=CO[C@@]2(C)Oc3c(C)c(O)c4c(O)c(c(/C=N/N5CCN(C)CC5)c(O)c4c3C2=O)NC(=O)/C(C)=C\C=C[C@H](C)[C@H](O)[C@@H](C)[C@@H](O)[C@@H](C)[C@H](OC(C)=O)[C@@H]1C,"inconclusive: 29.1 µM [inhibitor, partial curve, poor fit]",–
Cc1cc(C)cc(NC(=S)NCC2CCN(C(C)c3ccccc3)C2)c1 (configuration not stated),"inconclusive: 17.8 µM [inhibitor, partial curve, poor fit]",–
Cc1cc(C(=O)CSc2nnc(-c3ccccc3)n2-c2ccccc2)c(C)n1-c1ncn[nH]1,inactive,–
CCc1nnc(NC(=O)CSc2nc3cccnc3n2C2CCCCC2)s1,active: 2.51 µM,–
Cc1[nH]c2ccc(-c3nnc(SCC(=O)c4ccccc4F)o3)cc2c1C,"inconclusive: 11.2 µM [inhibitor, partial curve, poor fit]",–
CC(C)S(=O)(=O)c1ccc(C(=O)Nc2ccc(F)cc2F)cn1,"inconclusive: 35.5 µM [activator, single point]",–
CCNC(=O)NC(=O)C(C)Oc1ccc(Br)cc1Br (configuration not stated),"inconclusive: 0.501 µM [inhibitor, full curve, poor fit]",–
Cc1[nH]c2ccccc2c1C1(O)C(=O)N(Cc2ccccc2)c2ccc(Cl)cc21 (configuration not stated),"inconclusive: 10 µM [inhibitor, partial curve, poor fit]",–
CS(=O)(=O)Nc1ccc(C2=NN(S(C)(=O)=O)C(c3ccc4c(c3)OCO4)C2)cc1 (configuration not stated),"inconclusive: 0.141 µM [activator, single point]",–
CC(=O)N(c1ccccc1)c1c(F)c(F)c(F)c(F)c1F,"inconclusive: 32.6 µM [activator, single point]",–
Cc1noc(C)c1COC(=O)c1cccnc1SCC(=O)Nc1ccc2c(c1)OCO2,inactive,–
CN(CC#CCC(c1ccccc1)c1ccccc1)C(C)(C)C,"inconclusive: 6.51 µM [inhibitor, full curve, poor fit]",–
O=C(NCCN1CCOCC1)c1ccc2c(c1)N(Cc1cccc(F)c1)C(=O)c1ccccc1S2,"inconclusive: 7.08 µM [inhibitor, full curve, poor fit]",–
CCC(C)NC(=O)CCSc1ccc(C)cc1 (configuration not stated),"inconclusive: 1.41 µM [inhibitor, single point]",–
Cn1cc(C(=O)O)c(-c2ccc3c(c2)OCCCO3)n1,inactive,–
COc1ccc(/C=C/CN2CCCC(CCC(=O)NCc3ccc(F)c(F)c3)C2)cc1 (configuration not stated),active: 7.94 µM,–
CCCN(CCC)C(=O)Cn1c(=O)n(CCCCC(=O)NCc2ccco2)c(=O)c2ccccc21,inactive,–
COc1ccc(-c2nnc(SC(C)C(=O)O)o2)cc1 (configuration not stated),inactive,–

# Quoted at random: two entries already listed
SMILES,Potency,"activity change, negative = inhibition"
Cc1noc(C)c1COC(=O)c1cccnc1SCC(=O)Nc1ccc2c(c1)OCO2,inactive,–
CCOC(=O)c1c(NC(=S)Nc2ccc(OC)cc2)sc2c1CCCCC2,"inconclusive: 10 µM [activator, partial curve, poor fit]",–

# 4 neighbouring compounds already listed:
SMILES,Potency,"activity change, negative = inhibition"
CCC(C)NC(=O)CCSc1ccc(C)cc1 (configuration not stated),"inconclusive: 1.41 µM [inhibitor, single point]",–
Cn1cc(C(=O)O)c(-c2ccc3c(c2)OCCCO3)n1,inactive,–
COc1ccc(/C=C/CN2CCCC(CCC(=O)NCc3ccc(F)c(F)c3)C2)cc1 (configuration not stated),active: 7.94 µM,–
CCCN(CCC)C(=O)Cn1c(=O)n(CCCCC(=O)NCc2ccco2)c(=O)c2ccccc21,inactive,–

# (list continues)

SMILES,Potency,"activity change, negative = inhibition"
CCOC(=O)c1nc(Nc2ccc(N3CCOCC3)cc2)c2ccccc2n1,"inconclusive: 7.08 µM [inhibitor, partial curve, poor fit]",–
COc1ccc(-c2nnc(NC(=O)c3ccc(S(=O)(=O)N4CCCc5ccccc54)cc3)o2)cc1,"inconclusive: 12.6 µM [inhibitor, single point]",–
CCOC(=O)c1c(C)[nH]c(C)c1C(=O)CSc1nnc(-c2ccncc2)n1Cc1ccccc1,inactive,–
CSc1ccc(-c2nc3cccc(C)n3c2Nc2ccc3c(c2)OCO3)cc1,inactive,–
O=C(CSc1cccc2cccnc12)N/N=C/c1ccc(F)cc1,"inconclusive: 0.631 µM [inhibitor, full curve, poor fit]",–
Nc1c(C(=O)NCc2ccco2)c2nc3ccccc3nc2n1CCc1ccccc1,inactive,–
NC(=O)c1c(NC(=O)CN2CCN(S(=O)(=O)c3ccccc3)CC2)sc2c1CCC2,"inconclusive: 11.2 µM [inhibitor, partial curve, poor fit]",–
O=C(CN1CCOCC1)Nc1ccc(Br)cc1,"inconclusive: 1.41 µM [inhibitor, partial curve, poor fit]",–
Cc1cc(=O)oc(C)c1C(=O)Nc1c(C)n(C)n(-c2ccccc2)c1=O,"inconclusive: 31.6 µM [activator, single point]",–
Cc1c(Br)c(=O)oc2c(Br)c(O)c(O)cc12,inactive,–
COc1ccccc1NS(=O)(=O)c1cc(C(=O)N2CCN(C/C=C/c3ccccc3)CC2)ccc1C,"inconclusive: 11.2 µM [inhibitor, partial curve, poor fit]",–
COc1ccc2oc(C(=O)OCC(=O)N3CCN(S(=O)(=O)c4ccccc4)CC3)c(C)c2c1,"inconclusive: 35.5 µM [inhibitor, single point]",–
CCOc1ccccc1N1CCN(C(=O)c2cc(-c3cccnc3)nc3c(Cl)cccc23)CC1,"inconclusive: 0.282 µM [inhibitor, full curve, poor fit]",–
CCCCN(CCCC)Cc1cc(=O)oc2ccc3ccccc3c12,"inconclusive: 3.53 µM [inhibitor, full curve, poor fit]",–
Cc1ccc(O)c(-c2cc3ccccc3[nH]2)c1,inactive,–
O=C(NNC(=O)c1sc2cccc(Cl)c2c1Cl)Nc1ccccc1,inactive,–
N#C/C(=C/c1ccc(N2CCCCCC2)o1)c1cccc(F)c1,"inconclusive: 32.6 µM [inhibitor, single point]",–
CC1=NN2C(=N)/C(=C\c3cc(C)n(-c4ccccc4)c3C)C(=O)N=C2S1,inactive,–
Cc1nn(-c2ccccc2)c(C)c1C(=O)NCCc1ccccc1,"inconclusive: 12.6 µM [activator, partial curve]",–
O=C(COc1ccc(Cl)cc1)N1CCN(Cc2ccccc2)CC1,"inconclusive: 29.1 µM [inhibitor, single point]",–
COCCNC(=O)C(c1ccc(C)cc1)N(Cc1ccco1)C(=O)CCC(=O)Nc1ccccn1 (configuration not stated),"inconclusive: 7.08 µM [inhibitor, partial curve, poor fit]",–
